Results: patent US6800297B2, “Porous COX-2 inhibitor matrices and methods of manufacture thereof” (Acusphere, Inc., priority 2000, dated 2004)
At least one structure is not confirmed: it was looked up by name or label, or the drawing left a doubt.

Test: In vitro dissolution of celecoxib in T80/PBS
Assay type: physicochemical
Conditions: after 1 hour; PBS containing 0.08% Tween 80, room temperature; 2.45 mg celecoxib in 700 mL; FIG. 1

Cc1ccc(-c2cc(C(F)(F)F)nn2-c2ccc(S(N)(=O)=O)cc2)cc1 [celecoxib, 4-[5-(4-methylphenyl)-3-(trifluoromethyl)-1H-pyrazol-1-yl] benzenesulfonamide]
percent dissolved (percent of complete dissolution): 50%
